Data as given in PubChem BioAssay AID1259308 (NCATS, 2017).
Here is a random part of about 59,000 reagents tested. About 1,510 of them (2.6%) were called active. 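Calls use total luciferase alone and ignore viability, so some active siRNAs may act by altering cell number.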 The numbers tell different reagents against one gene apart. Further read-outs or replicates are left out here.

Aim: 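Knock-downs that increase output of a recombinant reporter protein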 (primary screen)
Cells: human HEK293 embryonic kidney cells stably expressing firefly luciferase (HEK-CMV-Luc2-Hygro)
Reagents: single siRNA against human genes, 0.8 pmol siRNA per well
Timing: 72 h
Measured: 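Reporter luminescence and viable-cell signal on separate replicate plates, given as percent of non-targeting control and median/MAD z-scores, plus per-cell luciferase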
Scale: total luciferase, z-score: higher = more reporter protein produced
Active means: 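An siRNA counts as active if its total luciferase robust z-score exceeds 3; genes with two or more such siRNAs out of three were retested with fresh siRNAs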
Calls: active = raised luciferase; inactive = no rise

For KIAA0232 #1, what was measured?
total luciferase, z-score: -1.49; outcome: inactive

What did the screen give for KIAA0232 #2?
total luciferase, z-score: 1.2; outcome: inactive

For KIAA0232 #3, what does the deposit list?
total luciferase, z-score: -0.389; outcome: inactive

How did the screen score SYCP3 (synaptonemal complex protein 3) #1?
total luciferase, z-score: -0.8; outcome: inactive

Which result is listed for SYCP3 (synaptonemal complex protein 3) #2?
total luciferase, z-score: 1.01; outcome: inactive

With SYCP3 (synaptonemal complex protein 3) #3, how do the results read?
total luciferase, z-score: 0.492; outcome: inactive

With IQCF1 (IQ motif containing F1) #1, what does the deposit list?
total luciferase, z-score: 1.35; outcome: inactive

With IQCF1 (IQ motif containing F1) #2, what was measured?
total luciferase, z-score: 1.19; outcome: inactive

What did the screen give for IQCF1 (IQ motif containing F1) #3?
total luciferase, z-score: 0.444; outcome: inactive

What is on record for FN3KRP (fructosamine 3 kinase related protein) #1?
total luciferase, z-score: -0.239; outcome: inactive

How did the screen score FN3KRP (fructosamine 3 kinase related protein) #2?
total luciferase, z-score: -0.257; outcome: inactive

What did the screen give for FN3KRP (fructosamine 3 kinase related protein) #3?
total luciferase, z-score: 0.844; outcome: inactive

For PNLIPRP3 (pancreatic lipase related protein 3) #1, what was measured?
total luciferase, z-score: -0.322; outcome: inactive

For PNLIPRP3 (pancreatic lipase related protein 3) #2, what does the deposit list?
total luciferase, z-score: 2.08; outcome: inactive

Which result is listed for PNLIPRP3 (pancreatic lipase related protein 3) #3?
total luciferase, z-score: -0.53; outcome: inactive

With RASEF (RAS and EF-hand domain containing) #1, what does the deposit list?
total luciferase, z-score: 0.518; outcome: inactive

What did the screen give for RASEF (RAS and EF-hand domain containing) #2?
total luciferase, z-score: 1.48; outcome: inactive

For RASEF (RAS and EF-hand domain containing) #3, what does the deposit list?
total luciferase, z-score: -1.31; outcome: inactive

What did the screen give for ECSCR #1?
total luciferase, z-score: -0.193; outcome: inactive

For ECSCR #2, what does the deposit list?
total luciferase, z-score: 0.569; outcome: inactive

What did the screen give for ECSCR #3?
total luciferase, z-score: 2.94; outcome: inactive

With CFAP206 (cilia and flagella associated protein 206) #1, how do the results read?
total luciferase, z-score: 0.568; outcome: inactive

How did the screen score CFAP206 (cilia and flagella associated protein 206) #2?
total luciferase, z-score: -0.371; outcome: inactive

For CFAP206 (cilia and flagella associated protein 206) #3, how do the results read?
total luciferase, z-score: 0.869; outcome: inactive

What did the screen give for CCDC89 (coiled-coil domain containing 89) #1?
total luciferase, z-score: 1.62; outcome: inactive

With CCDC89 (coiled-coil domain containing 89) #2, what does the deposit list?
total luciferase, z-score: 0.369; outcome: inactive

For CCDC89 (coiled-coil domain containing 89) #3, what was measured?
total luciferase, z-score: -0.807; outcome: inactive

Which result is listed for PTPN5 (protein tyrosine phosphatase non-receptor type 5) #1?
total luciferase, z-score: 0.41; outcome: inactive

With PTPN5 (protein tyrosine phosphatase non-receptor type 5) #2, what does the deposit list?
total luciferase, z-score: -0.123; outcome: inactive

How did the screen score PTPN5 (protein tyrosine phosphatase non-receptor type 5) #3?
total luciferase, z-score: -0.598; outcome: inactive

With TNNI2 (troponin I2, fast skeletal type) #1, what does the deposit list?
total luciferase, z-score: 0.327; outcome: inactive

With TNNI2 (troponin I2, fast skeletal type) #2, what does the deposit list?
total luciferase, z-score: 0.758; outcome: inactive

With TNNI2 (troponin I2, fast skeletal type) #3, how do the results read?
total luciferase, z-score: -1.34; outcome: inactive

A run of entries taken from the entries so far, for reference:
ECSCR #1 | total luciferase, z-score: -0.193; outcome: inactive
ECSCR #2 | total luciferase, z-score: 0.569; outcome: inactive
ECSCR #3 | total luciferase, z-score: 2.94; outcome: inactive
